From patent US6379400B1, “Dye compositions and methods of dyeing keratin fibers” (Wella Aktiengesellschaft, priority 1998, dated 2002)

How the values were obtained:
[1] = Checking the light-fastness (Atlas Suntest CPS+ xenon lamp); details: 1.5 kW xenon arc lamp irradiation; averaged over 5 strands of hair
[2] = Checking the washing-out behavior; details: shampooed five times for one minute with a neutral shampoo; averaged over 5 strands of hair

Structure (SMILES) | Light Fastness ΔE value [1] | Washing-out behavior ΔE value [2]
COCCNc1ccc([N+](=O)[O-])cc1 [Example 1, N-(2-methoxyethyl)-4-nitro-phenylamine] | 42.7 | 26.7
COCCNc1ccc([N+](=O)[O-])cc1C [Example 2, N-(2-methoxyethyl)-2-methyl-4-nitrophenylamine] | 38.8 | 16.2
